The supplement of paper PMC10849652
Some of the results follow.

Chains of the proteins cited; added tags and fusions are not shown. Lines headed by an entry give the natural chain unless they say otherwise; changes in a name come on top.
UniProt P01037: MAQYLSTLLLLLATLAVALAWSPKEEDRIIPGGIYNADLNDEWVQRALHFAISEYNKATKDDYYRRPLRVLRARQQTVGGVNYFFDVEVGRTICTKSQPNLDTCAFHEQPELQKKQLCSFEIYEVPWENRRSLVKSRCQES
UniProt Q9BWK5: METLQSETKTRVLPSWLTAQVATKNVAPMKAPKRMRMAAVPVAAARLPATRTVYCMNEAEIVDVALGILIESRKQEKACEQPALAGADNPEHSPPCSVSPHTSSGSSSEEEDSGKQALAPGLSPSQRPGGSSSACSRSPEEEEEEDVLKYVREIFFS
UniProt Q9Y5B0: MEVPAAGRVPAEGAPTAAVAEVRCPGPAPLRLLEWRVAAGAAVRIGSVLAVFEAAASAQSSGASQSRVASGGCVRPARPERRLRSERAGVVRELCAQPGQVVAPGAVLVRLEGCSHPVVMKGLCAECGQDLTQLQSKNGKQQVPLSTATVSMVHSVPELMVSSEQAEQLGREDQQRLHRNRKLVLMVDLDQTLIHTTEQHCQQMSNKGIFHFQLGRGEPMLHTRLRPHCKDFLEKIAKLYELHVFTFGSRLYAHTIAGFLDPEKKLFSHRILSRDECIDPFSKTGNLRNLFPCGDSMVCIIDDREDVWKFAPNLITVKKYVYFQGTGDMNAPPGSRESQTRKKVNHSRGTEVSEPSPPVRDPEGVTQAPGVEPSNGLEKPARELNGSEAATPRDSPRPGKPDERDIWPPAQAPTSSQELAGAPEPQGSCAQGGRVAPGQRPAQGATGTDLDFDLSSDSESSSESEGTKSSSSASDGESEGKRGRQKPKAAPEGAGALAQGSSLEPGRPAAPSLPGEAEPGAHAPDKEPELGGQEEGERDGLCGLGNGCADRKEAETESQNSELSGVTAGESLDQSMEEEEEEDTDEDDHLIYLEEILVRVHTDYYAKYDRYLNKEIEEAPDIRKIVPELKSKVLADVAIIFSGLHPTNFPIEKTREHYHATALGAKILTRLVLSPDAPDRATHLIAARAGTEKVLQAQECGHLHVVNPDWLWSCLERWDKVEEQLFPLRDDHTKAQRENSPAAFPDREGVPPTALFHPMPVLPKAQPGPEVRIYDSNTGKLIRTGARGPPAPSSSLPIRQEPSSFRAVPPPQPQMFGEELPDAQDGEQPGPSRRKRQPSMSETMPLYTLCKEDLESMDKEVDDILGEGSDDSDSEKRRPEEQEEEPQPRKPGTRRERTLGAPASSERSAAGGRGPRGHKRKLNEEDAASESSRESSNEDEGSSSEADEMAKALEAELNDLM
UniProt Q05D32: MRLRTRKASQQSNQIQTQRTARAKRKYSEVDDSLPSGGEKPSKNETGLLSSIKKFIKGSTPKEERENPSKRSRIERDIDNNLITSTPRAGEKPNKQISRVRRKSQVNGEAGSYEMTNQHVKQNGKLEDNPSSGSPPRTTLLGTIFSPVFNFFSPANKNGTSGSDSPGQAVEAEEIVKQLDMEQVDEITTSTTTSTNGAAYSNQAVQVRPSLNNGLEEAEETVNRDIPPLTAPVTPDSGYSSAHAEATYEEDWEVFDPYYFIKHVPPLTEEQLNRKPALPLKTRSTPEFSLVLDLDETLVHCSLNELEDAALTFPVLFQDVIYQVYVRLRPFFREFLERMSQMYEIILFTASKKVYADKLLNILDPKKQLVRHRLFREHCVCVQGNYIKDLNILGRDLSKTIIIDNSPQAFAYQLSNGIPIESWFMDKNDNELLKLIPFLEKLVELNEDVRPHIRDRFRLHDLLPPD
UniProt P01036: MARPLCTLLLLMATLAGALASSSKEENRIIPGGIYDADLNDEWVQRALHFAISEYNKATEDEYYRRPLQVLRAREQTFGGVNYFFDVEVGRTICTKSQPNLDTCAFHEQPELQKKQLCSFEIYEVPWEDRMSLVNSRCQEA
UniProt Q14999: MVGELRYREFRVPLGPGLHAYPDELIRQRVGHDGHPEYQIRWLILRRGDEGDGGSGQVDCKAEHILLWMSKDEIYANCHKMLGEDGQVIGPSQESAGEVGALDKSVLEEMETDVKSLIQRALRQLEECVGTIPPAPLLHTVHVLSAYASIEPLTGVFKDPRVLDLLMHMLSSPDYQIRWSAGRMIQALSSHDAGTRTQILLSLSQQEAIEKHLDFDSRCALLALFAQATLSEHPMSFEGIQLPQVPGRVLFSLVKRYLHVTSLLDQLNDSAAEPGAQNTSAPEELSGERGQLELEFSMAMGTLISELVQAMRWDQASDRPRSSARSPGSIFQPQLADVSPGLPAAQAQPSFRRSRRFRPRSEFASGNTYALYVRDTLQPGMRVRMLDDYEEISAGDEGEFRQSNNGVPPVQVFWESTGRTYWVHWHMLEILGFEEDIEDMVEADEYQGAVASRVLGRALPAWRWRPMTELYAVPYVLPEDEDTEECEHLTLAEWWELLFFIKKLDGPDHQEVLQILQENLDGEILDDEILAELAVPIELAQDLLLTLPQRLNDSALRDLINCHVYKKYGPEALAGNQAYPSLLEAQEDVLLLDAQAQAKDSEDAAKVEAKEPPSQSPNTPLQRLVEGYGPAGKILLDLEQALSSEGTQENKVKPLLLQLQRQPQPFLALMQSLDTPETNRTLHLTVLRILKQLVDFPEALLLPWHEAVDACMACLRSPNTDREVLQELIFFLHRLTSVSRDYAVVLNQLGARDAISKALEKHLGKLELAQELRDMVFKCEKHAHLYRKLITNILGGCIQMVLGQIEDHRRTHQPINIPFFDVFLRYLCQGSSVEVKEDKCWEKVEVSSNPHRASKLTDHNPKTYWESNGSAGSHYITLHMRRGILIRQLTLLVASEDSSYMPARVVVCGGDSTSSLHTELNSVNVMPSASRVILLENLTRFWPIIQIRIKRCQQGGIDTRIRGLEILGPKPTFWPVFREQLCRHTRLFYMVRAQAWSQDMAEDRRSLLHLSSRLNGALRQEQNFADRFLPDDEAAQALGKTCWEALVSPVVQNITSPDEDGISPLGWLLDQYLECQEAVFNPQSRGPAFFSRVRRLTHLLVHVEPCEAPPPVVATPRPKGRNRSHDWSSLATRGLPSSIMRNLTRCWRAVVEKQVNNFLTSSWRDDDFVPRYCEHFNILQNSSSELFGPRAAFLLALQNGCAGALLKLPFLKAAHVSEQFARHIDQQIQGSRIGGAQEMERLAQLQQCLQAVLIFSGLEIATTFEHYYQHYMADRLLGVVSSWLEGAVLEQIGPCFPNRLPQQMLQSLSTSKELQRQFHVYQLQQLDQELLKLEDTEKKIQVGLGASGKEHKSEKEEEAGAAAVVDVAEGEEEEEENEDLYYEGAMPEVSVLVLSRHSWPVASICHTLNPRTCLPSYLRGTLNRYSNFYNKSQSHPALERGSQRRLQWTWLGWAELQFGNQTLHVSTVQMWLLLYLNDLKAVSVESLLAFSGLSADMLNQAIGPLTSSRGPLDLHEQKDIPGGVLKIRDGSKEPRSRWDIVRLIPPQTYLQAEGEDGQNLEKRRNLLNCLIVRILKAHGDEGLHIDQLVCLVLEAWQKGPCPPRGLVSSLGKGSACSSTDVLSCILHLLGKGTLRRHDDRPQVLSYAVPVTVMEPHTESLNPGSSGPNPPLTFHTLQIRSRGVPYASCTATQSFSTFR
UniProt Q8WV16: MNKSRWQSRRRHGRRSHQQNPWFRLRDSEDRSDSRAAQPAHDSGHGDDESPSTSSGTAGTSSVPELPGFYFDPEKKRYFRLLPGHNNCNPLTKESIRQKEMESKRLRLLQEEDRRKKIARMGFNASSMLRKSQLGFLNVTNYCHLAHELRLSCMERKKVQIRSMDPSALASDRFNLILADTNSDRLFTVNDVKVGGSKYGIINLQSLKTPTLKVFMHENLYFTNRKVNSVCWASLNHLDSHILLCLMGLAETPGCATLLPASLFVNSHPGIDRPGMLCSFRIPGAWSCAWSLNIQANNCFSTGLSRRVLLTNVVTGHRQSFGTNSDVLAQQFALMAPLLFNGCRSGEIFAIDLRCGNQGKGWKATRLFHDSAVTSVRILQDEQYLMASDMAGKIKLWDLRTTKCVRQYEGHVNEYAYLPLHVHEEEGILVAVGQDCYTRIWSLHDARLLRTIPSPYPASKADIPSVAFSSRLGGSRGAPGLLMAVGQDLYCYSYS
UniProt Q9GZU7: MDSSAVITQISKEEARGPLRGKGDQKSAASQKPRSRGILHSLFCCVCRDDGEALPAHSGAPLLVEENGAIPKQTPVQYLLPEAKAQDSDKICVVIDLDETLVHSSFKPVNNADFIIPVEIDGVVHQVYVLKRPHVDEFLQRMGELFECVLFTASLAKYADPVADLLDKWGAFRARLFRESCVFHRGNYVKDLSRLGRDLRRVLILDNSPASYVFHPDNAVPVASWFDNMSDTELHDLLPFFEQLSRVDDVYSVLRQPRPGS
UniProt Q9NXE8: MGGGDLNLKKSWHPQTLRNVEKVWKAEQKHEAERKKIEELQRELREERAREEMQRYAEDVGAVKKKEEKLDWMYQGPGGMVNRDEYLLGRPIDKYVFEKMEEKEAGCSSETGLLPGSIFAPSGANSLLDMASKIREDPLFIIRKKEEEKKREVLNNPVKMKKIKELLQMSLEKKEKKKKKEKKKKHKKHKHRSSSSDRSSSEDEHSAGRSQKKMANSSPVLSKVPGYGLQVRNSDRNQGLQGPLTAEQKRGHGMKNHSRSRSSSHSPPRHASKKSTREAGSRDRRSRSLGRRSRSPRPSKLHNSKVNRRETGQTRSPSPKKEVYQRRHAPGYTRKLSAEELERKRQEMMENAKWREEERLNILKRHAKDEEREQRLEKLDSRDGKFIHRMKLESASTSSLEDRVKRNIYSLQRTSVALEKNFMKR
UniProt Q6ZWL3: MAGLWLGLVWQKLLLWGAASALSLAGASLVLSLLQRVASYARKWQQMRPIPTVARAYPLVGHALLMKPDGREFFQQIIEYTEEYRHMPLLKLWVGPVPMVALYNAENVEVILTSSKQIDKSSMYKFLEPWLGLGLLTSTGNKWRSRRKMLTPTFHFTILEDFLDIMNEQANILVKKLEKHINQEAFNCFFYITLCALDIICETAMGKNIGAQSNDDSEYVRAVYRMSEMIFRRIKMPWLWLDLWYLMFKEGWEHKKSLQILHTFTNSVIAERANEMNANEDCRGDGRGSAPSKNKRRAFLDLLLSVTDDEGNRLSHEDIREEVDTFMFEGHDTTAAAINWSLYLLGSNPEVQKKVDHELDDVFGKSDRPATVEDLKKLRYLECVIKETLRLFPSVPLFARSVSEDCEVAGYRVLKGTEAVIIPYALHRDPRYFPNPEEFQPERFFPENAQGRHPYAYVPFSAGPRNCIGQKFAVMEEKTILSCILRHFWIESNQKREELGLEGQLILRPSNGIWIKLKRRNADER
UniProt O43310: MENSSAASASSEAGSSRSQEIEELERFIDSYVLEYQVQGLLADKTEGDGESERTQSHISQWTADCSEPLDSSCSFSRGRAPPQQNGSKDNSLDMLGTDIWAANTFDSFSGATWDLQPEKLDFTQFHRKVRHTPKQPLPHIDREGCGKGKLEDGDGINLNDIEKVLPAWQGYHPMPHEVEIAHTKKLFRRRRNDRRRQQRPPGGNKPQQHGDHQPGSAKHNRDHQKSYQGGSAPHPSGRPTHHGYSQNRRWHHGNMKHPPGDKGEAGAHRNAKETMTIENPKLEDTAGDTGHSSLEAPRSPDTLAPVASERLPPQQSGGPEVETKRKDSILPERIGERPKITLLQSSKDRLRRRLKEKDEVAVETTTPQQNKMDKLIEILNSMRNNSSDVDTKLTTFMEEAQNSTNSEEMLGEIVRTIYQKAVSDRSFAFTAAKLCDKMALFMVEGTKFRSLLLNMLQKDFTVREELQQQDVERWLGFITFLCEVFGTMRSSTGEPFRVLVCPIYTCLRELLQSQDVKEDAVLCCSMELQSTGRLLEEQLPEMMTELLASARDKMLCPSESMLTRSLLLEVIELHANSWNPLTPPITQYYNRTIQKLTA
UniProt Q9UBX1: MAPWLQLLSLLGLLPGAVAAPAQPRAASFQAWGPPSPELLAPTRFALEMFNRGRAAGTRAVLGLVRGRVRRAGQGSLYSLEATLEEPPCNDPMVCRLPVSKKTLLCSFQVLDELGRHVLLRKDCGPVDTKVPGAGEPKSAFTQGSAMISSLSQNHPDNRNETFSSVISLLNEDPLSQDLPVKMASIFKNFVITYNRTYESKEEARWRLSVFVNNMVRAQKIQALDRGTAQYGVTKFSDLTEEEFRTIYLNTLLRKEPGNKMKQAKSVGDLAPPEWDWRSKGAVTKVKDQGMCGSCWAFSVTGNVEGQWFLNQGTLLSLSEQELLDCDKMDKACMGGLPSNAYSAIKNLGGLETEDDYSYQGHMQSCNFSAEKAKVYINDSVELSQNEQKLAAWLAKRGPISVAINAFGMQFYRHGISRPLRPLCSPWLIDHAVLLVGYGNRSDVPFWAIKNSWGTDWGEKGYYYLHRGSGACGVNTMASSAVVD
UniProt O95476: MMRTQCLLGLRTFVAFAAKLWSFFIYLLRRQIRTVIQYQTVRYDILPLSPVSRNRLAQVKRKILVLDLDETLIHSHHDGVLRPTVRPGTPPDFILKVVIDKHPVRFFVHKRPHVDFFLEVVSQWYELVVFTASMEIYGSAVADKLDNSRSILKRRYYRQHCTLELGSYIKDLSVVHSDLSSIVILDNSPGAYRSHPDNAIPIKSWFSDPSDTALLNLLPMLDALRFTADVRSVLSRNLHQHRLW

These targets were tested with CC[C@H](C)N1C=C(C2=C(C=C(C=C21)C3=CN=C(C=C3)N4CCNCC4)C(=O)NCC5=C(C=C(NC5=O)C)C)C (assay: log2 fold change, soluble protein after heating vs DMSO (PISA); higher = thermal stabilisation; K562 cells, 10 uM, 30 min; active = over 0.2 and 3.5 SD of the protein, either way, in both replicates (recomputed)).
Outline: (§1)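 For each measurement, 10 μM compound was applied for 30 min to K562 cells at 2×10^6 cells/mL. Aliquots were heated for 3 min across 48°C-58°C, pooled, and extracted in PBS with 0.5% NP-40 at 4°C; the supernatant after 21,000xg for 90 min was soluble protein. This was quantified by TMTpro 16plex LC-MS/MS with channel sums equalised, and thermal stability was reported relative to control samples from duplicates, on a log2 fold-change scale.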

log2 fold change, inactive:
CST1 (UniProt P01037) 0.23
CYREN (UniProt Q9BWK5) 0.105
CXCL14 (UniProt O95715) -0.203
CTDP1 (UniProt Q9Y5B0) -0.035
CTDSPL2 (UniProt Q05D32) -0.013
CST4 (UniProt P01036) 0.467
CUL7 isoform 2 (UniProt Q14999) -0.287
DCAF4 (UniProt Q8WV16) -0.075
CTDSP1 (UniProt Q9GZU7) 0.068
DAAM2 (UniProt Q86T65) 0.033
CYP2R1 (UniProt Q6VVX0) 0.058
CWC25 (UniProt Q9NXE8) 0.085

The targets below were run with CC[C@H](C)[C@@H](C(=O)N[C@@H]([C@@H](C)O)C(=O)N[C@@H](CC(C)C)C(=O)[C@]1(CO1)C)NC(=O)[C@H]([C@@H](C)CC)N(C)C(=O)C [epoxomicin] in the same assay as above.
Outline: as §1

log2 fold change, inactive:
CST1 (UniProt P01037) 0.161
CTDP1 (UniProt Q9Y5B0) 0
DCBLD1 (UniProt Q8N8Z6) -0.106
CYP4V2 (UniProt Q6ZWL3) -0.07
CXorf40B (UniProt Q96DE9) 0.007
DAPK1 isoform 3 (UniProt P53355) -0.057
DCAF17 (UniProt Q5H9S7) -0.037
CTDSPL2 (UniProt Q05D32) 0.26
CUL7 isoform 2 (UniProt Q14999) -0.042
CTIF (UniProt O43310) 0.033
DBNDD1 isoform 3 (UniProt Q9H9R9) 0.03
DCP2 (UniProt Q8IU60) -0.04
CTSF (UniProt Q9UBX1) -0.137
DCAF4 (UniProt Q8WV16) 0.041
CXXC5 (UniProt Q7LFL8) 0.031
DAAM2 (UniProt Q86T65) -0.378
DCUN1D4 isoform 3 (UniProt Q92564) 0.237
CWC25 (UniProt Q9NXE8) -0.101

What follows are targets tested with CCn1c(C(=O)N(C2CC2)C2CC2)cc2c3c(ncn3C)c(Nc3cc(C)n(C)n3)nc21 in the same assay as above.
Outline: as §1

log2 fold change, inactive:
CYP2S1 isoform 2 (UniProt Q96SQ9) 0.094
CYREN (UniProt Q9BWK5) -0.1
CTDP1 (UniProt Q9Y5B0) -0.039
CYP4V2 (UniProt Q6ZWL3) -0.009
CTDNEP1 (UniProt O95476) 0.11
CUL7 isoform 2 (UniProt Q14999) -0.116
DBNDD1 isoform 3 (UniProt Q9H9R9) -0.137
CTSF (UniProt Q9UBX1) 0.153
CTDSP1 (UniProt Q9GZU7) 0.232
CXXC5 (UniProt Q7LFL8) -0.057
CYTH2 (UniProt Q99418) -0.18
CTBP1 (UniProt E7ESU7) -0.254
DAAM2 (UniProt Q86T65) -0.021
CWC25 (UniProt Q9NXE8) 0.032

These targets were tested with CCn1cc(-c2ccnc3[nH]c(-c4cccc(CN(C)C)c4)cc23)c(-c2ccc(NC(=O)N(C)C)cc2)n1 in the same assay as above.
Outline: as §1

log2 fold change, inactive:
CYP2S1 isoform 2 (UniProt Q96SQ9) -0.089
CYREN (UniProt Q9BWK5) -0.097
DCUN1D5 (UniProt Q9BTE7) 0.043
CYP4V2 (UniProt Q6ZWL3) 0.002
CXorf40B (UniProt Q96DE9) -0.022
CTDNEP1 (UniProt O95476) 0.111
CTNNBIP1 (UniProt Q9NSA3) 0.094
CTSS (UniProt P25774) 0.126
DCAF12 (UniProt Q5T6F0) -0.141
CTDSPL2 (UniProt Q05D32) 0.012
CUL7 isoform 2 (UniProt Q14999) -0.032
CTSF (UniProt Q9UBX1) 0.069
DCAF4 (UniProt Q8WV16) 0.147
CTDSP1 (UniProt Q9GZU7) -0.077
CXXC1 isoform 2 (UniProt Q9P0U4) 0.035
CYP46A1 (UniProt Q9Y6A2) 0.111
CYREN isoform 4 (UniProt Q9BWK5) -0.063
CWC25 (UniProt Q9NXE8) 0.303

Each target was assayed with CN(C)CC(=O)Nc1ccc2[nH]c(=O)c3ccccc3c2c1 in the same assay as above.
Outline: as §1

log2 fold change, inactive:
CST1 (UniProt P01037) -0.065
CYREN (UniProt Q9BWK5) 0.115
CTNS isoform 2 (UniProt O60931) 0.135
DCUN1D5 (UniProt Q9BTE7) 0.138
CYP4V2 (UniProt Q6ZWL3) -0.04
CTDNEP1 (UniProt O95476) 0.087
CTSS (UniProt P25774) -0.021
DCAF17 (UniProt Q5H9S7) -0.014
CST4 (UniProt P01036) -0.027
CTIF (UniProt O43310) 0.198
DCP2 (UniProt Q8IU60) -0.069
CTDSP1 (UniProt Q9GZU7) 0.109
CXXC1 isoform 2 (UniProt Q9P0U4) 0.006
CSRP2 (UniProt Q16527) -0.045
CYP46A1 (UniProt Q9Y6A2) -0.023
CYREN isoform 4 (UniProt Q9BWK5) -0.228
DCUN1D4 isoform 3 (UniProt Q92564) 0.002
